# In publication PMC3491040:
# By UniProt entry, the sequences of proteins in these tests, tags left out. Residues count along the entry.
# UniProt P35968, residues 20-1356: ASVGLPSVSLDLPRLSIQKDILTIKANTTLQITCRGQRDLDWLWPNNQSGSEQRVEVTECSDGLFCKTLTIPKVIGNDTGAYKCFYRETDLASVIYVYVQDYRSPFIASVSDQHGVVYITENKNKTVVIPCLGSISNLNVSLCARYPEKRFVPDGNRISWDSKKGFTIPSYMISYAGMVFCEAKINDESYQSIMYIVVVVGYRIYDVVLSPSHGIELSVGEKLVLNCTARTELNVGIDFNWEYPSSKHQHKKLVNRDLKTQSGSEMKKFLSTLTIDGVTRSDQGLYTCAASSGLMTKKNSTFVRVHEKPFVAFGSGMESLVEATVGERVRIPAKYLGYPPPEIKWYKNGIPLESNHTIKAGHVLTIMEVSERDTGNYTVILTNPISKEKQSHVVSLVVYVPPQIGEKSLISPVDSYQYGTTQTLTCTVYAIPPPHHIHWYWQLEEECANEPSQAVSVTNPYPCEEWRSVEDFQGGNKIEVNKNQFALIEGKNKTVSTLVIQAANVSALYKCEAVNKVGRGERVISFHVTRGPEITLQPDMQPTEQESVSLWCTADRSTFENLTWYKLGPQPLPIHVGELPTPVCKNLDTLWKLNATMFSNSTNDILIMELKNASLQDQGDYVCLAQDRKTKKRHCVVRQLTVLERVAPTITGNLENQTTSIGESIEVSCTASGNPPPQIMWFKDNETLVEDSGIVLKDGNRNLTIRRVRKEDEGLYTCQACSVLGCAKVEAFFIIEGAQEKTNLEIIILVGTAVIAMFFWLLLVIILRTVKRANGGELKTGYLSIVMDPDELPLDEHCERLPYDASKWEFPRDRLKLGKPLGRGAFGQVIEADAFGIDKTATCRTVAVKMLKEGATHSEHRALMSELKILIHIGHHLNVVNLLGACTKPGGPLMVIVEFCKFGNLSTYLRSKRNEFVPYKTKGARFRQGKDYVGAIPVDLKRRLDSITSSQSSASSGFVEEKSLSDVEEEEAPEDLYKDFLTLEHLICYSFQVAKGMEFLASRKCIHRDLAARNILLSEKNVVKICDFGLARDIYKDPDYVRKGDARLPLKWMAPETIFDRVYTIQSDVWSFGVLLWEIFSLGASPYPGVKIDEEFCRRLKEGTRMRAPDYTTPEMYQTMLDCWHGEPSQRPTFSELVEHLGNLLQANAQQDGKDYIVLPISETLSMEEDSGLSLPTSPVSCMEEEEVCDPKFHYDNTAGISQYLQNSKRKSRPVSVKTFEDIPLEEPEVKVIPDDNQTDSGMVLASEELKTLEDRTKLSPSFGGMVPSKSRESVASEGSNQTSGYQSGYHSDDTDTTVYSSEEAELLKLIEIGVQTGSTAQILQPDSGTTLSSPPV
# UniProt P08238: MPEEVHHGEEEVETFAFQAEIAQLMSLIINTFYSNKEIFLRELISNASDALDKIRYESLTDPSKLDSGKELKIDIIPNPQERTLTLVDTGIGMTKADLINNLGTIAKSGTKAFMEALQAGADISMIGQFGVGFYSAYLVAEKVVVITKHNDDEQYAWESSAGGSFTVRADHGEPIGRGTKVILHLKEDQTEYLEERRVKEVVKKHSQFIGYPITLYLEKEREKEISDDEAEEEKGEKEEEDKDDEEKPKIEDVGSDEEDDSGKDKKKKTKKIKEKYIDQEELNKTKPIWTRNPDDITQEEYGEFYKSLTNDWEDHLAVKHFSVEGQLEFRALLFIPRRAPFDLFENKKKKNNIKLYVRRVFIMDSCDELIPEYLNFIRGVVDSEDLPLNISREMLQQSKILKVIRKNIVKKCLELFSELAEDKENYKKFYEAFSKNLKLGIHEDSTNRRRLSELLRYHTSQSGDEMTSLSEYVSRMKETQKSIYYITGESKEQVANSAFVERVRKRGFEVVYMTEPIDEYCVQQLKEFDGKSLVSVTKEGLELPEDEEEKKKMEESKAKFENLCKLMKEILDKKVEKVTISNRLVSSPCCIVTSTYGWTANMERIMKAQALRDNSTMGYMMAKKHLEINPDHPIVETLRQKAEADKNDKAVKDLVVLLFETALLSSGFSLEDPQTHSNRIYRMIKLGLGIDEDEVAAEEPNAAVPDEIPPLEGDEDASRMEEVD
# UniProt Q9UNE7: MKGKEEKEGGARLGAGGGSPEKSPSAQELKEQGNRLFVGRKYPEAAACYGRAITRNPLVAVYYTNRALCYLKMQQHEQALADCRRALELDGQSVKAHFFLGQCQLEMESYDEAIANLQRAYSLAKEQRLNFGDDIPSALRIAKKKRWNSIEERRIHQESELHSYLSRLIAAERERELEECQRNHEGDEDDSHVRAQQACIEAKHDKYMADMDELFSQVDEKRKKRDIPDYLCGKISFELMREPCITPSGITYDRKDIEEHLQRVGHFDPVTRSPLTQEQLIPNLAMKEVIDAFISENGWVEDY
# Results are given in words; binding and its absence hold for the method and conditions named. In cells and extracts the contact can be indirect.
# Molecular target: vascular endothelial growth factor receptor 2 (human (endogenous in HUVECs)) (UniProt P35968)
# Experiment: co-IP; VEGFR2 immunoprecipitated from HUVEC lysates (0.5 µg antibody, 500 µg total protein, protein G-Sepharose, 2 h at 4°C; lysis buffer 0.5% digitonin, 100 mM KCl, 20 mM Hepes pH 7.4); cells without or with geldanamycin for 4 h; goat IgG as control; immunoblotting of the complexes
row,binding,Substance
1,no binding,HSP90β (from UniProt P08238 1-724)
2,no binding,carboxy terminus of HSP70-interacting protein (from UniProt Q9UNE7 1-303) (enzyme)
